Measured values: PubChem BioAssay AID1307 (SRMLSC, 2008)
The campaign covered roughly 1,200 compounds. Fewer than 10 were called active.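 The calls were made as follows: active = inhibition reaching a set limit at one or more tested concentrations; inactive = inhibition under that limit at every dose.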 The list shows a part of the results. Results with a measured potency or affinity are listed apart.

Experiment: RAM pathway signaling blockade in S. cerevisiae – dose response (AID 1307);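 also: 0% = DMSO vehicle wells and 100% = 10 µM 1-NA-PP1 control; higher inhibition means more yeast growth since RAM block rescues cells from 5-FOA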
Settings: S. cerevisiae RAM network URA3 reporter, 5-FOA growth OD615, hits give high values, yeast express analog-sensitive mutant Cbk1 kinase; at 100 µM unless noted

Max inhibition, inactive:
Cc1cc(C)c(S(=O)(=O)Nc2ccc3c(c2)CCC3)c(C)c1 3.31%
CCOC(=O)c1c(NC(=O)CN2CCCc3ccccc32)sc(C)c1C 5.5%
O=S(=O)(Nc1nc2ccccc2nc1Nc1ccc2c(c1)OCCO2)c1cccs1 5.19%
O=C(CSc1nnc(-c2ccccc2Br)o1)N1CCc2ccccc2C1 2.54%
COc1cccc(/C=C2\SC(=S)N(C(Cc3ccccc3)C(=O)O)C2=O)c1 (stereo not drawn) 1.2% [at 3.125 µM]
C=CCOC(=O)C1=C(C)NC(SCC)=C(C#N)C1c1ccc(Cl)cc1 (stereo not drawn) 5.31% [at 0.391 µM]
O=C(CC1SC(=Nc2ccc(OC(F)F)cc2)N(CCC2=CCCCC2)C1=O)Nc1ccccc1F (stereo not drawn) 3.9%
O=C(CNC(=S)N(Cc1ccccc1)Cc1ccccc1F)NCc1ccc(Cl)cc1 5.54%
COC(=O)c1c(CSc2ccc(C)c(C)c2)noc1C(=O)NCc1ccc(OC)cc1 1.58% [at 0.391 µM]
O=C(COC(=O)c1ccccc1Cc1ccccc1)Nc1ccc(SC(F)F)cc1 3.46%
Cc1cccc(OCC(=O)O/N=C(\N)Cc2ccc([N+](=O)[O-])cc2)c1 1.81% [at 50 µM]
O=C(COC(=O)CNS(=O)(=O)c1ccc2ccccc2c1)Nc1ccccc1Sc1ccccc1 3.35%
CCCC(=O)Oc1c(S(=O)(=O)c2ccc(C)cc2)c(C)nn1C(C)(C)C 3.54%
Clc1cccc(Cl)c1CSc1nnc(-c2sccc2-n2cccc2)o1 2.31%
[2H]c1c([2H])c([2H])c(-c2nc(N3CCCCCC3)sc2C(=O)c2ccccc2)c([2H])c1[2H] 3.34% [at 1.563 µM]
Cc1ccc(CN2CCSc3ccc(C(=O)NCc4ccco4)cc32)cc1 2.83% [at 0.391 µM]
CC1(C)CC(C(CCN(Cc2ccccc2)C(=O)c2ccco2)c2ccc(F)cc2)CCO1 (stereo not drawn) 4.56% [at 50 µM]
O=C(COC(=O)CCN1C(=O)/C(=C\C=C\c2ccccc2)SC1=S)Nc1ccc(Br)cc1 9.41%
CCc1oc2ccccc2c1C(=O)c1cc(Br)c(O)c(Br)c1 2.23% [at 0.782 µM]
COc1cccc(NC(=O)C2CC(=O)N(C)C(=Nc3cccc(F)c3)S2)c1 (stereo not drawn) 3.67% [at 1.563 µM]
C/C=C(/C)C(=O)O[C@@H]1c2c(ccc3ccc(=O)oc23)O[C@@H]1C(C)(C)OC(=O)/C(C)=C\C 2.13%
Cn1cccc1C(=O)OCc1cc(Cl)cc2c1OCOC2 1.77% [at 0.391 µM]
CCOC(=O)c1sc(-c2ccccc2)cc1NC(=O)c1ccc(S(=O)(=O)N(CCOC)CCOC)cc1 1.69% [at 12.5 µM]
Cc1ccccc1OCC(=O)OCC(=O)c1ccc(OC(=O)c2ccccc2)cc1 5.18%
C=CCSc1nc2ccccc2c2nc(-c3ccccc3)nn12 2.08% [at 1.563 µM]
O=C(OC(C(=O)Nc1cccc(C(F)(F)F)c1)c1ccccc1)C1CCCCC1 (stereo not drawn) 3.65% [at 50 µM]
Cn1c(=O)c(/C=C/c2ccc(F)cc2)nc2ccccc21 2.52% [at 50 µM]
O=C(NC(=S)Nc1ccc(Oc2ccc(Cl)cc2)cc1)c1ccccc1 3.06%
O=C(Nc1ccc2c(c1)OCO2)c1ccc(COc2ccc3c(c2)CCC3)o1 2.54%
CC(C)Cn1c(N)c(-c2nc(C(C)C)c(C(=O)c3ccccc3F)s2)c(=O)n(C)c1=O 7.65%
Cc1ccc(N=c2oc3cc(O)ccc3cc2C(N)=O)cc1 5.31%
N/C(Cc1ccc([N+](=O)[O-])cc1)=N\OC(=O)COc1ccc2ccccc2c1 2.69% [at 0.782 µM]
O=S(=O)(c1ccc(F)cc1)n1ccc(-c2cccc(OCc3ccc(Cl)cc3Cl)c2)n1 2.15% [at 6.25 µM]
CC(C)C(c1nnnn1Cc1ccccc1)N(Cc1ccco1)Cc1cccs1 (stereo not drawn) 2.96% [at 1.563 µM]
CCN(CC)S(=O)(=O)c1cccc(-c2nnc(SCCCC(=O)c3ccccc3)o2)c1 3.65%
Cc1ccc(CS/C(Nc2ccccc2C)=C(\C#N)C(=O)NCc2ccco2)c(C)c1 4.82%
COCCNC(=S)N(CCc1c(C)[nH]c2ccc(F)cc12)Cc1cccs1 3.04%
CCOc1ccc(NS(=O)(=O)c2ccc(NC(=S)NC(=O)CC(C)C)cc2)cc1 3.65% [at 0.196 µM]
Cc1ccc(C)c(NC(=O)c2sc(Cl)nc2-c2ccccc2)c1 2.09% [at 1.563 µM]
C/C(CC1CC2=C(CC1(C)C)C(C)(C)CCC2)=N\NC(N)=S (stereo not drawn) 2.04% [at 50 µM]
CCOC(=O)CC(=O)CSc1nc(N)c(C#N)c(-c2ccc(Cl)cc2)c1C#N 9.01%
Cc1ccc(S(=O)(=O)Cn2nnnc2CN(Cc2ccco2)Cc2cccs2)cc1 2.97% [at 3.125 µM]
O=C(COc1cccc(F)c1)N1c2ccccc2Sc2ccccc21 4.94%
COc1ccccc1OCC(=O)N(Cc1nc(-c2ccccc2)no1)C1CCCCC1 1.73%
COc1ccc(S(=O)(=O)Nc2cccc(S(=O)(=O)N3CCCCCC3)c2)cc1 1.86% [at 25 µM]
CCN(CC)S(=O)(=O)c1cc(C(=O)OCC(=O)Nc2cccc(Br)c2)ccc1F 2.24%
CON/C=C(\C=Nc1ccc(C(F)(F)F)cc1)c1ncc(C(F)(F)F)cc1Cl 3.78%
c1ccc(-c2nc(CSc3nnnn3-c3ccccc3)cs2)cc1 3.28% [at 50 µM]
CCOc1ccc2nc(NC(=O)CSc3nc(-c4ccccc4)c(C#N)c(=O)[nH]3)sc2c1 9.68%
Cc1ccc(S(=O)(=O)c2nc(Nc3ccccc3)sc2Cl)cc1 2.9% [at 25 µM]
Cc1ccc(/C=C2\SC(=S)N(C(Cc3ccccc3)C(=O)O)C2=O)cc1 (stereo not drawn) 11.1%
CC(C)=CCc1c2c(c3occ(-c4ccc(O)cc4)c(=O)c3c1O)C=CC(C)(C)O2 4.93% [at 50 µM]
COc1ccc(OC)c(-c2csc(NC(=O)CSc3ccccc3)n2)c1 6.24%
CCOC(=O)CC(=O)CSc1nc(-c2ccccc2)cc(-c2ccc(Cl)cc2)c1C#N 2.29% [at 12.5 µM]
COc1cccc(/C=C/C(=O)OCC(=O)Nc2cc(C(F)(F)F)ccc2Cl)c1 2.67% [at 50 µM]
Cc1cc(C(=O)CSc2ccc(Cl)cc2)cc(C)c1OC(=S)N(C)C 2.89% [at 0.782 µM]
C=CCOc1c(Br)cc(CNc2ccc(NC(=O)C(C)C)c(OC)c2)cc1OCC 2.15% [at 3.125 µM]
CC(C)OC(=O)/C(C#N)=C/c1cn(Cc2ccccc2)c2ccccc12 6.2% [at 50 µM]
COc1ccc(-c2ccc(-c3noc(-c4cccc(OC)c4)n3)c(OC)n2)cc1 4.12%
COc1ccc(/C=C2\SC(=S)N(CC(=O)OCC(=O)Nc3ccc([N+](=O)[O-])cc3OC)C2=O)cc1 8.9%
COc1cccc(C(=O)Oc2ccccc2/C=C\C(=O)c2cc3ccccc3o2)c1 8.08%
O=C(CSc1ccc(Cl)cc1)N1CCN(c2ccc([N+](=O)[O-])cc2Cl)CC1 2.2% [at 25 µM]
N#Cc1nc(Cc2cccc3ccccc23)oc1NCc1ccc(F)cc1 3.86% [at 0.782 µM]
CCc1ccccc1N1CCN(S(=O)(=O)c2cc(OC)ccc2OC)CC1 2.16% [at 50 µM]
C=C(C)COc1ccc(-c2[nH]ncc2Oc2ccccc2OCC)c(O)c1 3.4%
O=C(CSc1ccc(Cl)cc1Cl)N1CCC(c2nc3ccccc3s2)CC1 3.93%
Cc1cccc(NC2=Nc3ccccc3N3C2=Nc2c(c(C)nn2-c2ccccc2)C3c2ccc(O)c(O)c2)c1 (stereo not drawn) 13.2%
O=C(Nc1ccccc1-c1nnc(SCc2ccccc2)o1)c1ccccc1 4.39% [at 3.125 µM]
O=C(O)CCCN1C(=O)/C(=C/c2cn(-c3ccccc3)nc2-c2cccs2)SC1=S 5.08%
N#Cc1c(N)nc(SCc2ccccn2)c(C#N)c1-c1cccs1 9.76%
CCN(CC)S(=O)(=O)c1cccc(-c2nnc(SCCOc3ccc(Cl)cc3)o2)c1 1.57% [at 12.5 µM]
CCOC(=O)C1=C(CSc2nc(-c3ccccc3)ccc2C#N)OC(N)=C(C#N)C1c1ccc(OC)cc1 (stereo not drawn) 5.85%
Cc1ccccc1N1C(=O)CC1(C#N)c1ccc(OCc2ccccc2)cc1 (stereo not drawn) 3.12% [at 50 µM]
Cc1ccc(NC(=O)Cc2ccc(Cl)c(Cl)c2)cc1S(=O)(=O)N(C)C 1.65%
Cc1ccc(-c2cccc(C(=O)NCCc3ccccc3)n2)c2ccccc12 6%
COc1ccc(/C=C/C(=O)OCC(=O)Nc2cccc(Oc3ccccc3)c2)c(OC)c1 5.19%
CCn1c2ccccc2c2cc(NC(=O)c3cc(OC)c(OC)c(OC)c3)ccc21 3.36% [at 50 µM]
O=C(/C=C/c1ccc(Br)cc1)N1CCN(c2cccc(C(F)(F)F)c2)CC1 2.05% [at 0.782 µM]

An excerpt taken from the entries so far, for reference:
Max inhibition, inactive:
CCOC(=O)c1sc(-c2ccccc2)cc1NC(=O)c1ccc(S(=O)(=O)N(CCOC)CCOC)cc1 1.69% [at 12.5 µM]
Cc1ccccc1OCC(=O)OCC(=O)c1ccc(OC(=O)c2ccccc2)cc1 5.18%
C=CCSc1nc2ccccc2c2nc(-c3ccccc3)nn12 2.08% [at 1.563 µM]
O=C(OC(C(=O)Nc1cccc(C(F)(F)F)c1)c1ccccc1)C1CCCCC1 (stereo not drawn) 3.65% [at 50 µM]
